These are yes or no findings as the source states them, for the method shown. In cells and extracts the contact can be indirect. These calls come from enrichment with a bait or labelling near it, and not all partners need be listed.

Protein sequences, listed by entry. Tags and fused reporters are not part of them.
UniProt Q9H792: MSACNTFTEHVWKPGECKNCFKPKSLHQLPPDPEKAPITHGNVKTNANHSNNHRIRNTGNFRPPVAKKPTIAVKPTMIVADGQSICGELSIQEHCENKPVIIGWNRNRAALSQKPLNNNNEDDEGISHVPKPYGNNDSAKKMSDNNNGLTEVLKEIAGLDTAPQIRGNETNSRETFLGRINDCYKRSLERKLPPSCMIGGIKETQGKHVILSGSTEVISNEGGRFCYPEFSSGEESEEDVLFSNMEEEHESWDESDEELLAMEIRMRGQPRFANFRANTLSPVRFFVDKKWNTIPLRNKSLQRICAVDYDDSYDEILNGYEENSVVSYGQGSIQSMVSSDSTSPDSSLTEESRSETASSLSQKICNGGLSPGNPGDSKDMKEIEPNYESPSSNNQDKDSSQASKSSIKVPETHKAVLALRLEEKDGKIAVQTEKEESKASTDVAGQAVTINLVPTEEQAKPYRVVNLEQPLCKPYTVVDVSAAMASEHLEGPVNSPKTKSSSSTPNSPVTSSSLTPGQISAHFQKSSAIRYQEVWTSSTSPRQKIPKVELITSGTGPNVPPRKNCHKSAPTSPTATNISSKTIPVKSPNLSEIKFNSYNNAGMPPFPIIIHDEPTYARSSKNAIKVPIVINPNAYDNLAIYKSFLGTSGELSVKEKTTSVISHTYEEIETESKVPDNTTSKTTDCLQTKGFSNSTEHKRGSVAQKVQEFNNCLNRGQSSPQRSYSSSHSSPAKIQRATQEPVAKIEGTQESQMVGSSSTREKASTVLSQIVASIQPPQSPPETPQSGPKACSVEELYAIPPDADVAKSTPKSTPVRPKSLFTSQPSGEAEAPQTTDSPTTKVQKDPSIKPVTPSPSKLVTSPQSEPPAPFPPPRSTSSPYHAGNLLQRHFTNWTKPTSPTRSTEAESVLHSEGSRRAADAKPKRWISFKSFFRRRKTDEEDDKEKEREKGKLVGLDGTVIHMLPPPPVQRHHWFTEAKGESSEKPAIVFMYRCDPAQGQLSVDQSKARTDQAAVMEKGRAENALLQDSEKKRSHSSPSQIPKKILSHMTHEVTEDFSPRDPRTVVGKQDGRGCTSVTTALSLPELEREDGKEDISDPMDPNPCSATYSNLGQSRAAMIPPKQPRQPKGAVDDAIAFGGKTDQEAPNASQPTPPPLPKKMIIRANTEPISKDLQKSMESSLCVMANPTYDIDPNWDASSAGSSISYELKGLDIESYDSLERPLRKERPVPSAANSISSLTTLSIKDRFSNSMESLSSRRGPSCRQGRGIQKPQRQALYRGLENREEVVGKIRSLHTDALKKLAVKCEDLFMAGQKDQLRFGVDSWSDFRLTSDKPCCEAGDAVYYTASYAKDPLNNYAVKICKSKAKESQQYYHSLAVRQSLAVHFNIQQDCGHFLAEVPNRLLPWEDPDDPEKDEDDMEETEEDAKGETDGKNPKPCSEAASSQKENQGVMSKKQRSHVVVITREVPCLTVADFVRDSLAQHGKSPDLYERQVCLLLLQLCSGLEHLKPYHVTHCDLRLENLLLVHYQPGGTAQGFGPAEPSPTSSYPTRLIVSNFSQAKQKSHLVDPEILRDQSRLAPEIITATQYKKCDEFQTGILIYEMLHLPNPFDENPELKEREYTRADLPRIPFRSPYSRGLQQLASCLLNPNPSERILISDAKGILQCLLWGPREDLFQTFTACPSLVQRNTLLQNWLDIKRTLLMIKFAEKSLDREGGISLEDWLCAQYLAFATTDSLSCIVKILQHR
UniProt P41240: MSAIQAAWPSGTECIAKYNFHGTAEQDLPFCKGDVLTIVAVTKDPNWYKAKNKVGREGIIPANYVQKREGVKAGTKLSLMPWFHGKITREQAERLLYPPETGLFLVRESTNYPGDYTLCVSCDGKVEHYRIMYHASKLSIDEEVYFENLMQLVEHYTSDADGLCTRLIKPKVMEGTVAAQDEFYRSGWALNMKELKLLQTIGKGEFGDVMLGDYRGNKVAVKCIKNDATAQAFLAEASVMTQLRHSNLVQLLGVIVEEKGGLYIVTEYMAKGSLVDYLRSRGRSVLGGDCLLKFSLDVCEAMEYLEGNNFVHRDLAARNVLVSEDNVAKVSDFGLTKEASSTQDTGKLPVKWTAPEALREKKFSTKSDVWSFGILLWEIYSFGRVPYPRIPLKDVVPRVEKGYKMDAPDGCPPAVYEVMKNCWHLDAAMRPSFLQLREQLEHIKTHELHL
UniProt Q07157: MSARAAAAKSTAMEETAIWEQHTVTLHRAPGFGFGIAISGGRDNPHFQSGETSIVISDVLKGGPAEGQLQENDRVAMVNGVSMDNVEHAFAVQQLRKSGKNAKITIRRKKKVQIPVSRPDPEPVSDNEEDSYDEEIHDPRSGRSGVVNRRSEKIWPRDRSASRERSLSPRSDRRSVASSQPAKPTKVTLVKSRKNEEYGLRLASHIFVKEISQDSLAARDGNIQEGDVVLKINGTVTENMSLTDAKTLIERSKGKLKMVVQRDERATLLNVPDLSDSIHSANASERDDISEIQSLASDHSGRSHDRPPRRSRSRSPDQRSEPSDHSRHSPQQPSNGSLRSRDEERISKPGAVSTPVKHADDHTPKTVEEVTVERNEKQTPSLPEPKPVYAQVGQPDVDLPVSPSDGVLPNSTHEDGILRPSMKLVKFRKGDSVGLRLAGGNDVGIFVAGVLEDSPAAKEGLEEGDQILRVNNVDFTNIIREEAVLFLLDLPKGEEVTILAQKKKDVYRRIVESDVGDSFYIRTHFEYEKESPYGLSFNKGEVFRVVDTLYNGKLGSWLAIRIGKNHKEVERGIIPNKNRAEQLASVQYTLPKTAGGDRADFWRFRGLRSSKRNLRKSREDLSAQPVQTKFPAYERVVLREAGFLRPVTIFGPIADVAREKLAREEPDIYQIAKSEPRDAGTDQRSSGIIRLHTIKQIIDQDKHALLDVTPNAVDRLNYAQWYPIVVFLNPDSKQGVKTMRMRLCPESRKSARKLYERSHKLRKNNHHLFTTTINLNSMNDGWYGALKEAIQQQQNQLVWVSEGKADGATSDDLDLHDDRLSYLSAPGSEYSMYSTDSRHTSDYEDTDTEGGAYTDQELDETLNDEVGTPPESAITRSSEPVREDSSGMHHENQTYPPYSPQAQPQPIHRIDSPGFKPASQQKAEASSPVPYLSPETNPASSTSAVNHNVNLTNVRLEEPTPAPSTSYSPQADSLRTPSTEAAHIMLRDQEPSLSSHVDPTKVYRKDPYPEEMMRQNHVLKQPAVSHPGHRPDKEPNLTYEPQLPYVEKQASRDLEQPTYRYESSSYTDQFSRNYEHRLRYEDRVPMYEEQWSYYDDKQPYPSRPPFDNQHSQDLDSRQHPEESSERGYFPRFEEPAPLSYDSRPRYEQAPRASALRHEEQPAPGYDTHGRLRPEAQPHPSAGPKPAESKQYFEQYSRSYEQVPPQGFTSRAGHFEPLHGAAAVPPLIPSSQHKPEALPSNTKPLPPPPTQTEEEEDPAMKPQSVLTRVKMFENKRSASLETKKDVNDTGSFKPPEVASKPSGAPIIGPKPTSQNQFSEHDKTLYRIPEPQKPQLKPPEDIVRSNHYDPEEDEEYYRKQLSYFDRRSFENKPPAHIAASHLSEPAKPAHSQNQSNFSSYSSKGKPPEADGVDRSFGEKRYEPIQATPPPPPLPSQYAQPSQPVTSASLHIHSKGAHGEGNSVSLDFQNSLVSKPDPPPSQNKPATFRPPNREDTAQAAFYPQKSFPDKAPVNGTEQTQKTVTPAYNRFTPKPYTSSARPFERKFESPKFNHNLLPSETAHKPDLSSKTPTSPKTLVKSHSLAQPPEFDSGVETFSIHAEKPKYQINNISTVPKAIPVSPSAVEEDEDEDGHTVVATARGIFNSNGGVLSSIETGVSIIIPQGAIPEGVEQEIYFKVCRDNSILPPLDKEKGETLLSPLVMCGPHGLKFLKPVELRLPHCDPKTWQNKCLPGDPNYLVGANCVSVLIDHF

For 3 molecules, binding results are on record in paper PMC12290104, “PEAK1 maintains tight junctions in intestinal epithelial cells and resists colitis by inhibiting autophagy-mediated ZO-1 degradation” (Nature Communications, 2025).

To fix the notation:
B1: Occludin in HEK293T cell lysate (protein, UniProt Q16625 1-522)
chain: MSSRPLESPPPYRPDEFKPNHYAPSNDIYGGEMHVRPMLSQPAYSFYPEDEILHFYKWTSPPGVIRILSMLIIVMCIAIFACVASTLAWDRGYGTSLLGGSVGYPYGGSGFGSYGSGYGYGYGYGYGYGGYTDPRAAKGFMLAMAAFCFIAALVIFVTSVIRSEMSRTRRYYLSVIIVSAILGIMVFIATIVYIMGVNPTAQSSGSLYGSQIYALCNQFYTPAATGLYVDQYLYHYCVVDPQEAIAIVLGFMIIVAFALIIFFAVKTRRKMDRYDKSNILWDKEHIYDEQPPNVEEWVKNVSAGTQDVPSPPSDYVERVDSPMAYSSNGKVNDKRFYPESSYKSTPVPEVVQELPLTSPVDDFRQPRYSSGGNFETPSKRAPAKGRAGRSKRTEQDHYETDYTTGGESCDELEEDWIREYPPITSDQQRQLYKRNFDTGLQEYKSLQSELDEINKELSRLDKELDDYREESEEYMAAADEYNRLKQVKGSADYKSKKNHCKQLKSKLSHIKKMVGDYDRQKT

The test addresses GFP-PEAK1 (human) (UniProt Q9H792). As to the kind of experiment: affinity purification with mass spectrometry; GFP-PEAK1 overexpressed in HEK293T cells, immunoprecipitated; gel bands digested and read by LC-MS/MS.
Consider “CSK in HEK293T cell lysate (from UniProt P41240 1-450)”, for which the binding result was “binds”.

“ZO-1 in HEK293T cell lysate (from UniProt Q07157 1-1748)”: the binding result was “binds”.

As for B1, the binding result is listed as “binds”.
